# Source: paper PMC3168489
# Sequences of proteins named here, by UniProt entry; tags and fusion partners are left off.
# UniProt P69897: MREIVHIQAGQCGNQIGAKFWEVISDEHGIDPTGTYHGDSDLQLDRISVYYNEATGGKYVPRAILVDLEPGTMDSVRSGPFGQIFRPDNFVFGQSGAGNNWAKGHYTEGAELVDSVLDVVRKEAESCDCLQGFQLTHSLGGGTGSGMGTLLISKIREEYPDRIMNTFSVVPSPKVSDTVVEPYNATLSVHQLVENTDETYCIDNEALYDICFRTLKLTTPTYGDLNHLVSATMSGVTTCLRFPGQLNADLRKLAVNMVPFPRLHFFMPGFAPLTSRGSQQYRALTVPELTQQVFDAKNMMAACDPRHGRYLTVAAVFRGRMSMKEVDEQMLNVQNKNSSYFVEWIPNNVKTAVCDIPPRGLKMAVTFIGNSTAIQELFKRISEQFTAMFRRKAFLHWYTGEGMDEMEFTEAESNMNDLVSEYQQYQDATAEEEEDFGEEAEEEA
# These are yes or no findings as the source states them, for the method shown. Binding seen in cells or lysates may run through a third protein. These calls come from enrichment with a bait or labelling near it, and not all partners need be listed. Tags and fused reporters may be left off the sequences shown.
# T1: His-Rasd1 (mouse) (UniProt O35626)
# T1 sequence: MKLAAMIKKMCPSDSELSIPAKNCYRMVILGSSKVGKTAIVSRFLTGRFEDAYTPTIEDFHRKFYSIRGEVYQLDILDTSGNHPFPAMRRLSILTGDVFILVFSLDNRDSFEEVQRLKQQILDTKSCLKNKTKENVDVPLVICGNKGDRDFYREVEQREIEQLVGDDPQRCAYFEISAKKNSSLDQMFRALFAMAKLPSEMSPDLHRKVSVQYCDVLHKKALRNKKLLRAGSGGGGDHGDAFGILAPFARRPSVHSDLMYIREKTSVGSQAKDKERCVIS
# Target: T1, His-Rasd1 (mouse)
# Experiment: affinity purification with mass spectrometry; His-Rasd1 from transfected COS-7 cells held on Ni-NTA magnetic agarose beads, washed, incubated with PC-12 lysate overnight at 4°C; bound proteins eluted in Laemmli buffer, Coomassie bands cut from 12% SDS-PAGE, MALDI-TOF/MS; only the target purified
row,binding,Molecule
1,binds,"Tubulin beta 5 (endogenous, PC-12 lysate) (from UniProt P69897 1-444)"
2,binds,"NonO (endogenous, PC-12 lysate) (protein, UniProt Q5FVM4 1-476) MQSNKTFNLEKQNHTPRKHHQHHHQQHHQQQQQQQQQQQQQPPPPIPANGQQASSQNEGLTIDLKNFRKPGEKTFTQRSRLFVGNLPPDITEEEMRKLFEKYGKAGEVFIHKDKGFGFIRLETRTLAEIAKVELDNMPLRGKQLRVRFACHSASLTVRNLPQYVSNELLEEAFSVFGQVERAVVIVDDRGRPSGKGIVEFSGKPAARKALDRCSEGSFLLTTFPRPVTVEPMDQLDDEEGLPEKLVIKNQQFHKEREQPPRFAQPGSFEYEYAMRWKALIEMEKQQQDQVDRNIKEAREKLEMEMEAARHEHQVMLMRQDLMRRQEELRRMEELHNQEVQKRKQLELRQEEERRRREEEMRRQQEEMMRRQQEGFKGTFPDAREQEIRMGQMAMGGAMGINNRGAMPPAPVPPGTPAPPGPAAMMPDGTLGLTPPTTERFGQAATMEGIGAIGGTPPAFNRPAPGAEFAPNKRRRY"
